Data reported in PMC10163288.
This is one part of the list.

B1: il2ra_site1_3nfp_sap_6_mot_HHH_b2_06502_000000163_0001_42_55_H_._HEEHE_0113_0001_0000200018_0000001_0_0001 (protein)
chain: SSSSSNDEAWRLLREAYEEFKKAKSREEMRELLEEAERLARELGDERLLRDIEKWLEQMKSSSSS
B2: il2ra_site1_3nfp_sap_17_mot_HHH_b1_07180_af2_000000260_0001_1_19_H_._HHH_b2_04738_0001_0000600012_0000001_0_0001_af2pred_0001_af2pred_1_swapped (protein)
chain: SSSSSDDLERMRELSRQLLELRRNEDKERLEELAQELLELAEETNSRAARILAELLLERASSSSS
B3: il2ra_site1_3nfp_sap_16_mot_58e3eb3031e6d57439b1b965989c2868_0001_af2_000000159_0001_19_34_H_._7652b2386bb4fc5942ed0486cd997122_0001_af2_0001_0000500019_0000001 … (protein)
chain: SSSSSPKREELARLFEEAEALAKAGKPEEAKEVLEKALKLAKELKANKTIRFIELCLKSLESSSS
B4: il2ra_site1_2b5i_sap_25_mot_c4dd8cf0dac887b0ed015202f8c0b8fc_0001_000000224_0001_37_51_H_._2012b86ae8029c2c8ab6d311e818aa61_0001_0001_0000100008_0000001_0_0001_ … (protein)
chain: SSSSSLVAEALALFKEADKLFQAGKEEEAKEVLEKALELAKAAGAKLLVKIIESALKDLESSSSS
B5: il2ra_site1_3nfp_normal_mot_HHH_b2_01219_af2_000000024_0001_1_17_H_._HHH_b1_07852_af2_0001_0000100004_0000001_0 (protein)
chain: SSSSSSLEWIEEQAERAFKNNDRLDLRALEKIVKRAIEIIGDPKAREVLELIEELLERLKSSSSS
B6: il2ra_site2_2erj_normal_mot_HHH_b1_00941_000000060_0001_45_58_H_._HHH_b1_02002_0001_0000100008_0000001_0_af2pred_0001_1_af2pred_swapped (protein)
chain: SSSSSDEEIEERVRELLEEAEKIKDKREALELLEEASKLAAELDDPELLELIDEVAQRLSSSSSS
B7: il2ra_site1_2b5i_sap_8_mot_HHH_b1_05103_000000017_0001_1_14_H_._HHH_b2_05767_0001_0000500016_0000001_0_0001 (protein)
chain: SSSSSLDERIQELFHRASRLFLEGNPEEARELLEEALELAEELGSPKLEEDVRQMLERLNSSSSS
B8: il2ra_site2_3nfp_sap_20_mot_HHH_b2_07129_000000128_0001_19_36_H_._HHH_b2_07592_0001_0000200010_0000001_0_0001 (protein)
chain: SDAEEAEQILLRIAHLAWEKNDFEAWMEVAELILRLARAKERNDEELVEEITELAKELEEKVRSS
B9: il2ra_site2_2erj_normal_mot_HHH_eva_0050_af2_000000198_0001_43_62_H_._HHH_b2_07905_0001_0000100006_0000001_1 (protein)
chain: SSSSSSDEEEKEVRELLEEARHLTDLEEVYRLLNEALHLAARHRDHELLELILEFLEEQSSSSSS
B10: il2ra_site2_3nfp_normal_mot_HHH_b1_01086_af2_000000264_0001_39_53_H_._HHH_b2_08168_0001_0000100002_0000001_0_af2pred_0001_af2pred (protein)
chain: SSSSSSSEEEVEELLEEAEKADDPRLRLLLLLRARKIAEQLGDPELQRLVEEVYRRLFSSSSSSS
B11: il2ra_site1_1z92_sap_9_mot_HHH_b1_06381_000000058_0001_42_59_H_._HHH_b1_03318_0001_0000100005_0000001_0_0001_af2pred_0001_af2pred_swapped (protein)
chain: SLVEQTLREAVEKNDEELLRRFIEIALRDAGDPRLVKQLLRILVKRLGLPPEVLERLEELLEELT
B12: il2ra_site1_3nfp_normal_mot_ems_3hC_921_af2_000000143_0001_22_40_H_._HHH_b2_03092_0001_0000300056_0000001_0_af2pred_0001_af2pred_1_swapped (protein)
chain: SSSSSEESREFQELSREVSKLIQEGDREEAEELLKELERLARELNSPIAELLVKLLEELLGSSSS
B13: il2ra_site1_3nfp_sap_13_mot_HHH_b1_02658_000000155_0001_1_19_H_._HHH_b2_06239_af2_0001_0000100001_0000001_0_0001 (protein)
chain: SSSSNAAMRWLREAAERAFENNNRLDLRALLRLLERAIEQFGDPEAEELLEFIERLLEKLSSSSS
B14: il2ra_site1_1z92_sap_17_mot_HHH_b1_00368_000000203_0001_23_39_H_._HHH_b2_03759_0001_0000300045_0000001_0_0001_af2pred_0001_af2pred_1 (protein)
chain: SSSSSLELAKRLHEFVLRLIEELGLSDEDAQKLLELLAQLLAKGVSEEEAEEELERLAEELSSSS
B15: il2ra_site1_1z92_sap_15_mot_e1ae4cb039f7b6770b9307eb87230ce5_0001_000000230_0001_37_51_H_._22eb9e4dad251339c268dc73c902281b_0001_0001_0000100004_0000001_0_0001_ … (protein)
chain: SSSSSSERDARIVVELAVRAAGLSEEQQEELERLAKELLEEGYSFEEIARILDKLALELGSSSSS
B16: il2ra_site2_3nfp_sap_18_mot_HHH_b1_04644_af2_000000261_0001_42_57_H_._HHH_b2_04983_af2_0001_0000400023_0000001_0_0001 (protein)
chain: SSSSSDDHELYERVVELLKRAAHIEDEEEVRQLLEEARELAEEAGNPVLRRSVEFVAKSLSSSSS
B17: il2ra_site2_2erj_sap_24_mot_HHH_b1_06697_000000025_0001_41_54_H_._HHH_b1_01777_0001_0000600011_0000001_1_0001_af2pred_0001_af2pred (protein)
chain: SSSSSSSSEERVRELLEEAKHVEDQKRAFELLQEADKIALENNDPEAQQLVQKLARELSSSSSSS
B18: il2ra_site2_3nfp_sap_32_mot_HHH_b2_03211_af2_000000182_0001_18_34_H_._0c3bf8cb9d93094680b22e24baf1e485_0001_0001_0000200030_0000001_0_0001 (protein)
chain: SSSSSRIEEELRKMVEQAIEVARSKNDPELVRRLEELLEALEETGDPRYALEAYALARELSSSSS

biological target: il2ra, P01589; experiment: yeast display titration

Apparent Kd, inactive:
B1 no binding seen
B2 no binding seen
B3 no binding seen
B4 no binding seen
B5 no binding seen
B6 no binding seen
B7 no binding seen
B8 no binding seen
B9 no binding seen
B10 no binding seen
B11 no binding seen
B12 no binding seen
B13 no binding seen
B14 no binding seen
B15 no binding seen
B16 no binding seen
B17 no binding seen
B18 no binding seen

Quoted from the entries so far (2 entries):
Apparent Kd, inactive:
B1 no binding seen
B2 no binding seen
